Reference: paper PMC11833509
Results are given in words; binding and its absence hold for the method and conditions named. In cells and extracts the contact can be indirect. Some binding calls cover weakened binding; strength is not graded here. For some of these results: Tags and fused reporters may be left off the sequences shown.

The chains behind the UniProt entries cited, without tags or fusion partners.
UniProt Q9V9S7: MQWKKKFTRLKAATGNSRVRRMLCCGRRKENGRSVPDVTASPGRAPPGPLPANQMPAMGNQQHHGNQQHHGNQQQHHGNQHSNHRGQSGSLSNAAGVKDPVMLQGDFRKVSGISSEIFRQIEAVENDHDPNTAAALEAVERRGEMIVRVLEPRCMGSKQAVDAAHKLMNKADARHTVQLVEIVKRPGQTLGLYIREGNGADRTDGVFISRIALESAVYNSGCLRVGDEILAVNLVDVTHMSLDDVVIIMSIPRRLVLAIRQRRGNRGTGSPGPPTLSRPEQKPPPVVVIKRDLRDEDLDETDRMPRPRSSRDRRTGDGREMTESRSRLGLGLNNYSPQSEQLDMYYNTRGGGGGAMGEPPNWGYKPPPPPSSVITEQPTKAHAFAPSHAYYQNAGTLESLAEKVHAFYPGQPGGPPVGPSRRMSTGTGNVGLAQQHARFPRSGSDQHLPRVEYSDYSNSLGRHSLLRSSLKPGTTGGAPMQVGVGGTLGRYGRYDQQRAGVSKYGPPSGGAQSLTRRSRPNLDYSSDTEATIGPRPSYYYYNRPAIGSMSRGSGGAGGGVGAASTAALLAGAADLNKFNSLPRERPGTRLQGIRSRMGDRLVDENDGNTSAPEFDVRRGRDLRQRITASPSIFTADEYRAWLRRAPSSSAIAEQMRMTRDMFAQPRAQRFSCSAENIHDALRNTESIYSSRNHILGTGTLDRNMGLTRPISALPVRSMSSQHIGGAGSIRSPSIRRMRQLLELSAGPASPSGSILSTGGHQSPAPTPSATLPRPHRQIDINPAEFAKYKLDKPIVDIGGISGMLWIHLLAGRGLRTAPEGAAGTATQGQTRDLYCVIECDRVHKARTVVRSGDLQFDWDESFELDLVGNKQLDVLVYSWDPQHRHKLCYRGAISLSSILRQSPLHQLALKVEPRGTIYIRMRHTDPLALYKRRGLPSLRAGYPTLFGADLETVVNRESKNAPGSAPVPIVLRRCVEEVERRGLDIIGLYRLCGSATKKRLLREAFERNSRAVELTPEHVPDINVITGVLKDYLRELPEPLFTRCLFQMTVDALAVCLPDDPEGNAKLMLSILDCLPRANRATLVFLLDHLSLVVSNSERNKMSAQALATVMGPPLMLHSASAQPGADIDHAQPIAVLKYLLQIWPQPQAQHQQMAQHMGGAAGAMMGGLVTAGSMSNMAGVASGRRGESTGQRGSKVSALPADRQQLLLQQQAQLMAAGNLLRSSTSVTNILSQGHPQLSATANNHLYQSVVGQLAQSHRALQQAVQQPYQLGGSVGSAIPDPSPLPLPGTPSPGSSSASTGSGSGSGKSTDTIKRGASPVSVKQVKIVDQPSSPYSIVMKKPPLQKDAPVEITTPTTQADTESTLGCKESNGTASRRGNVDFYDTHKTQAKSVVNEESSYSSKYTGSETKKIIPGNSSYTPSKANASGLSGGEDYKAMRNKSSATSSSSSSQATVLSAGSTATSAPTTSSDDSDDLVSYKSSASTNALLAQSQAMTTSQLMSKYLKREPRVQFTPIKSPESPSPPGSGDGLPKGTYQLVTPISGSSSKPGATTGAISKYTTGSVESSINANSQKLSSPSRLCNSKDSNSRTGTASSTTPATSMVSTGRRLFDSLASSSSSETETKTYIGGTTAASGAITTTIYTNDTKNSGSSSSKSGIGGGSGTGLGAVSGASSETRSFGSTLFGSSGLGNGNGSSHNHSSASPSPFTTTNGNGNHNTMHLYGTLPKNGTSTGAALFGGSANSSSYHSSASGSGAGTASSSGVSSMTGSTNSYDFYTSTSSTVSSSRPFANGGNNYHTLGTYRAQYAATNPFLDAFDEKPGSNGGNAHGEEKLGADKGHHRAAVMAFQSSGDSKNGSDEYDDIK
UniProt Q9W1B0: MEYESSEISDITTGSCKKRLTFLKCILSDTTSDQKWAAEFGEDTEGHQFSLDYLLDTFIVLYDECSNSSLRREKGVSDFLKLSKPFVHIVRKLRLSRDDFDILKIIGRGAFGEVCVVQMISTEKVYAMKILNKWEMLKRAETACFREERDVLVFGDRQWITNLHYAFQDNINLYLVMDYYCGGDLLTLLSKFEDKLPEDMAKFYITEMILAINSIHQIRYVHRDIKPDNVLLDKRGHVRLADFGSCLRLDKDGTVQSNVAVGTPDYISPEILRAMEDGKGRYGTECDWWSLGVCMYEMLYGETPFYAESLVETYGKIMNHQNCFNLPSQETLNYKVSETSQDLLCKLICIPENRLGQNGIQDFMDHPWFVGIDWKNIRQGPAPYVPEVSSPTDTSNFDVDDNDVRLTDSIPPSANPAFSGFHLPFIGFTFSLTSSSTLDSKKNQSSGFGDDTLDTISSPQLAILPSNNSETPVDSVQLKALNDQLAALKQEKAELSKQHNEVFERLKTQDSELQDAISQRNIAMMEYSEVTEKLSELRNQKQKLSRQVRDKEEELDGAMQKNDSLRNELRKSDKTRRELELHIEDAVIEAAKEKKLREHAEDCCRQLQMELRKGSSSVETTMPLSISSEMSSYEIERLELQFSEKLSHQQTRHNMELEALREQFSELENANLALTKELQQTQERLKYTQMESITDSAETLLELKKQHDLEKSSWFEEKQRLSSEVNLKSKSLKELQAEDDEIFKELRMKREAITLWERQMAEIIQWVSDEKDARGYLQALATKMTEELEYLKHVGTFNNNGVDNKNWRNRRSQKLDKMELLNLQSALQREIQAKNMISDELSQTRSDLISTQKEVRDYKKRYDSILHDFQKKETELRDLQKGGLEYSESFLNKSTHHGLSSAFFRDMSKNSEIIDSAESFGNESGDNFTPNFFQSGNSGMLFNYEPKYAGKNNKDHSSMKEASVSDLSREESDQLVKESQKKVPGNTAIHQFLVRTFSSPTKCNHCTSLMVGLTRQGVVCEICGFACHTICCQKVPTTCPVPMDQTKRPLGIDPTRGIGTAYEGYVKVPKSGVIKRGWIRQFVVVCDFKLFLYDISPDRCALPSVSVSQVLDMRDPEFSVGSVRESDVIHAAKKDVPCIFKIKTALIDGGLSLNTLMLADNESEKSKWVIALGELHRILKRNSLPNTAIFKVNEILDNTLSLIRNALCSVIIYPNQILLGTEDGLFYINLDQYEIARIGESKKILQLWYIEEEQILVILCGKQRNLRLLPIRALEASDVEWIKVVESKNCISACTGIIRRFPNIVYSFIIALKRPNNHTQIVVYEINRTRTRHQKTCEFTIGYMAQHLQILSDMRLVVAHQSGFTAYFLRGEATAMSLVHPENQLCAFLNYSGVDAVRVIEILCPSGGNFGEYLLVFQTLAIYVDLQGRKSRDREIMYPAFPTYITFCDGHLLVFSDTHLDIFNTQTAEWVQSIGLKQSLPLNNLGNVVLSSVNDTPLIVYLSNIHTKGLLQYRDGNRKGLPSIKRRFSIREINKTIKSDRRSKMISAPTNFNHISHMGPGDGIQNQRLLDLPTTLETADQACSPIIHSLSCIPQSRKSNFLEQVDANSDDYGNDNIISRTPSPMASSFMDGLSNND

What was measured:
[1] = biological target: T1, V5-tagged Ten-m-ΔECD (I256-A2731 deleted) (Drosophila melanogaster) (UniProt O61307); experiment: co-IP; co-transfected S2 cells, 72 h; lysis in 50 mM Tris-HCl pH 7.5, 150 mM NaCl, 0.2% TritonX-100, 10% glycerol; mouse anti-V5 on Protein G Dynabeads overnight at 4°C; washes with 0.5% TritonX-100; blot with anti-FLAG
T1 sequence: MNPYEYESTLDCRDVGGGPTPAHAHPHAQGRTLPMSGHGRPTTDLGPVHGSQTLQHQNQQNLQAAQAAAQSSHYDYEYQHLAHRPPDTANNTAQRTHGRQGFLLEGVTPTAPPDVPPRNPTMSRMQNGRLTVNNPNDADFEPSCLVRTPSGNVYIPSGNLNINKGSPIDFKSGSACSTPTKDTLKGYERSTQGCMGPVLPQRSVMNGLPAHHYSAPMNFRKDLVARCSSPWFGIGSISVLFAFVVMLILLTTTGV

[2] = biological target: V5-tagged full-length Ten-m (tenascin-major, isoform B) (Drosophila melanogaster) (UniProt O61307); experiment: as above

Row | binding [1] | binding [2] | Substance
1 | binds | binds | FLAG-tagged full-length Syd1 (RhoGAP100F) (from UniProt Q9V9S7 1-1866)
2 | binds | binds | FLAG-tagged Genghis Khan (Gek) (from UniProt Q9W1B0 1-1637)
